# According to patent publication US6630583B1, “Antibiotics and methods of using the same” (priority 1998, dated 2003):
# Some of these results come from one statement about several compounds together.
# System: R6
# Experiment: Cell viability (CFU/ml) one hour after addition
# Type: cell-based, pneumococcus
# Details: R6, within one hour; 10×MIC of penicillin, 1×MIC of vancomycin or 0.4 mM peptide
row,Compound,killing (loss of viability) [logs]
1,"CC1(C)S[C@@H]2[C@H](NC(=O)Cc3ccccc3)C(=O)N2[C@H]1C(=O)O [penicillin, benzylpenicillin]",> 3
2,CN[C@H](CC(C)C)C(=O)N[C@H]1C(=O)N[C@@H](CC(N)=O)C(=O)N[C@H]2C(=O)N[C@H]3C(=O)N[C@H](C(=O)N[C@H](C(=O)O)c4cc(O)cc(O)c4-c4cc3ccc4O)[C@H](O)c3ccc(c(Cl)c3)Oc3cc2cc(c3O[C@@H]2O[C@H](CO)[C@@H](O)[C@H](O)[C@H]2O[C@H]2C[C@](C)(N)[C@H](O)[C@H](C)O2)Oc2ccc(cc2Cl)[C@H]1O [vancomycin],> 3
3,MRKEFHNVLSSGQLLADKRPARDYN (listed as Streptococcus pneumoniae) [Peptide 1],> 3
